# Columns and labels:
# [1] = tested on: Elastin (ELN) expression in normal human dermal fibroblasts (NHDF); assay: ELN mRNA in NHDF activated with TGF-β1 or IL-1β, 24 h, qRT-PCR; type: cell-based; settings: 100 mM Lac or 0.1 mM Dxp
# Experimental: (§1) To serve as a control, cells were also treated with 0.1 mM Dex-21-phosphate (Dxp or Dex). After 24 hours, total mRNA was isolated and delta-delta Cp relative expression was calculated versus untreated medium controls, normalized to the housekeeping gene, GAPDH. Statistical analysis was then conducted via t-test.
# [2] = tested on: Col2a1 expression in low passage osteoarthritic chondrocytes; assay: Col2a1 relative expression in low passage osteoarthritic chondrocytes; type: cell-based, human; settings: day 28
# [3] = tested on: MMP12 expression in normal human dermal fibroblasts (NHDF); assay: MMP12 mRNA in NHDF activated with IL-1β, 24 h, qRT-PCR; type: cell-based; settings: IL-1β 0.1 ng/ml, 100 mM Lac or 0.1 mM Dxp, IL-1β alone 17.8±12.3
# Experimental: as §1
# [4] = tested on: IL-1β release from human THP1 macrophages; assay: Two-hit (LPS then ATP) inflammasome activation model, IL-1β release from THP1 macrophages; type: cell-based; settings: THP-1, Dex phosphate alone, 1 picomolar to 10 micromolar
# Description: The proinflammatory cytokine, IL-1β, is released from cells upon activation of the inflammasome, a multi-protein proinflammatory complex. A two-hit model of inflammasome activation in THP1 macrophages was developed that entails an overnight stimulation with LPS followed by a second proinflammatory stimulus, extracellular ATP, which drives inflammasome assembly and subsequent IL-1β release from the cells into the media.
# [5] = tested on: Col2a1 expression in human osteoarthritic chondrocytes; assay: Col2a1 relative expression in human osteoarthritic chondrocytes (passage 5) cultured 27 days; type: cell-based; settings: 50 micromolar Dec, 0.1 μM Dxp, 100 mM Lac
# Experimental: (§2) To evaluate the biological ramifications of the SOX9 to RUNX2 regulation mentioned above, delta-delta relative gene expression was assessed against medium controls, with normalization to GAPDH for both Col2a1 and Col1a1 in the samples tested with reference to Example 15. […] Moreover, treatment with 100 mM Lac increased collagen expression (49.88±4.31 and 1.63±0.20 for Col2a1 and Col1a1, respectively; FIGS. 51 and 52).
# [6] = tested on: SOX9 expression in human osteoarthritic chondrocytes; assay: SOX9 relative expression in high and low passage osteoarthritic chondrocytes, 7, 14 or 28 days; type: cell-based; settings: low passage osteoarthritic chondrocytes; 7, 14, 28 days
# Description: Media was exchanged bi-weekly. […] SOX9 is a transcription factor vital to the development and maintenance of cartilage and is required for chondrogenesis. SOX9 promotes chondrocyte survival and transcriptionally activates cartilage-specific genes. SOX9 is repressed in hypertrophic chondrocytes (i.e. terminally differentiated osteoblast-like cells).
# [7] = tested on: MMP3 expression in normal human dermal fibroblasts (NHDF); assay: MMP3 mRNA in NHDF activated with IL-1β, 24 h, qRT-PCR; type: cell-based; settings: IL-1β 0.1 ng/ml, 100 mM Lac or 0.1 mM Dxp, IL-1β alone 3.5±1.7
# Experimental: as §1
# [8] = tested on: Col1a1 expression in human osteoarthritic chondrocytes; assay: Col1a1 relative expression in human osteoarthritic chondrocytes (passage 5) cultured 27 days; type: cell-based; settings: 50 micromolar Dec, 0.1 μM Dxp, 100 mM Lac
# Experimental: as §2
smiles,measurement,setting,value
"C[C@@H]1C[C@H]2[C@@H]3CCC4=CC(=O)C=C[C@]4(C)[C@@]3(F)[C@@H](O)C[C@]2(C)[C@@]1(O)C(=O)COP(=O)(O)O [Dxp, dexamethasone phosphate, reference compound]",relative expression of ELN,"[1]; IL-1β 0.1 ng/ml, IL-1β alone 18±12, n=3",7.8+4
same,relative expression of ELN,"[1]; TGF-β1 10 ng/ml, TGF-β1 alone 110±35, n=3",78±14
same,relative expression of Col2a1,[2],reduction
same,relative expression of MMP12,[3],1.7±0.6
same,IC50,[4],46 nM
same,Col2a1 delta-delta relative gene expression,[5],−25.99±13.34 fold
same,ratio of SOX9/RUNX2,[6],reduced
same,relative expression of MMP3,[7],0.6±1.5
same,Col1a1 delta-delta relative gene expression,[8],−1.44±0.17 fold

# Source: patent US20250288599A1, “PHARMACEUTICAL COMPOSITIONS AND METHODS FOR TREATING OSTEOARTHRITIS” (INSIGNIA PHARMACEUTICALS, LLC, priority 2024, published 2025)
